Some of these results come from one statement about several compounds together.
Tested on: S. epidermidis
Assay: Regrowth of luciferase-harbouring bacteria on sanitized titanium surfaces, fluorometer
Format: cell-based
Details: 5 minutes in sanitizing solution, then BHI medium at 37 centigrade, hourly reading
Protocol: Regrowth of S. epidermidis after sanitizing a contaminated titanium surface Regrowth of S. epidermidis bacteria harbouring the luciferase gene making them fluorescent, on sanitized titanium surfaces. Surfaces was first contaminated with bacteria and incubated in BHI broth until the surfaces were completely covered in biofilm. The titanium discs were then submerged in sanitizing solution and left on a slow shaker for 5 minutes. After sanitizing the discs were rinsed in a large volume of sterile water, then covered by BHI medium again and incubated at 37 centigrade. At hourly intervals the discs were placed in a fluorometer to measure regrowth of bacteria by amount of fluorescent as compared to an untreated calibrated control and a sterile disc.

In the case of `CCCCCCCCCCCCOS(=O)(=O)[O-].[Na+]` [SDS 0.1% w/v, sodium dodecyl sulphate], the “Time until regrowth of the biofilm after cleaning” value is reported as 3 to 4 h.
